Data from the supplement of paper PMC10849652.
This is one part of the list.

By UniProt entry, the sequences of proteins in these tests, tags left out. Where a name states a change or a piece, a line headed by the entry shows the natural chain unless it says otherwise.
UniProt O15160, whole entry, looked up: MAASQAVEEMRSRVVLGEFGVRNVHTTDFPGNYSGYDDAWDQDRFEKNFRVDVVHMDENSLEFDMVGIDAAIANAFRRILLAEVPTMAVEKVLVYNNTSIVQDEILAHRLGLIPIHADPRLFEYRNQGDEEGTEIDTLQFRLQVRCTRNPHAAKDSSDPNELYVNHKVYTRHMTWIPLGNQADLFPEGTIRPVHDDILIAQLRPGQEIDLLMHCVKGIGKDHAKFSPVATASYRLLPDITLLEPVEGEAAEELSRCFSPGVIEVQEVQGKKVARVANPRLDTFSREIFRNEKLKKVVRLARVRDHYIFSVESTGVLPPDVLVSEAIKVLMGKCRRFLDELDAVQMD
UniProt Q9Y2S7: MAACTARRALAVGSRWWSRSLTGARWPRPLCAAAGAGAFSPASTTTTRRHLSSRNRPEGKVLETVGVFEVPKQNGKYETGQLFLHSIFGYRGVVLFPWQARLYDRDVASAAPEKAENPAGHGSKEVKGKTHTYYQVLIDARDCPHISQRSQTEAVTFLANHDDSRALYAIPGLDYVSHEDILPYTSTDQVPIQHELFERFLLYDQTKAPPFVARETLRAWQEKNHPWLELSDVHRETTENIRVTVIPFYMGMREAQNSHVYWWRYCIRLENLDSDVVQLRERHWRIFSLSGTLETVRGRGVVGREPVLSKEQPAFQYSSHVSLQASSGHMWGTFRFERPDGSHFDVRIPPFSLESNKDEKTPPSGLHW
UniProt Q9H1D9: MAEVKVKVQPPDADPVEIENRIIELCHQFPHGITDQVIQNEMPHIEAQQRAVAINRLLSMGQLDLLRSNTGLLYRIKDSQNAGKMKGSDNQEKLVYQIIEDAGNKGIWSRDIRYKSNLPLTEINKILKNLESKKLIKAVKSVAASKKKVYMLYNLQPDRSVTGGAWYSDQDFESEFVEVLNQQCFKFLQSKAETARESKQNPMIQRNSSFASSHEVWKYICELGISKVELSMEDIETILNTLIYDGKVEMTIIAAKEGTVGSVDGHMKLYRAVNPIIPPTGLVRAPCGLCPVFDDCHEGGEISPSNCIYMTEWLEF
UniProt O43447: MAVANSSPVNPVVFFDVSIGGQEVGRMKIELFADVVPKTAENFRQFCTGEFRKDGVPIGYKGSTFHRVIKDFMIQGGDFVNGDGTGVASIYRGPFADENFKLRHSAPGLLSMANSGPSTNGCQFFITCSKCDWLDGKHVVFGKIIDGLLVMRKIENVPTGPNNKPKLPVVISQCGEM
UniProt O60664: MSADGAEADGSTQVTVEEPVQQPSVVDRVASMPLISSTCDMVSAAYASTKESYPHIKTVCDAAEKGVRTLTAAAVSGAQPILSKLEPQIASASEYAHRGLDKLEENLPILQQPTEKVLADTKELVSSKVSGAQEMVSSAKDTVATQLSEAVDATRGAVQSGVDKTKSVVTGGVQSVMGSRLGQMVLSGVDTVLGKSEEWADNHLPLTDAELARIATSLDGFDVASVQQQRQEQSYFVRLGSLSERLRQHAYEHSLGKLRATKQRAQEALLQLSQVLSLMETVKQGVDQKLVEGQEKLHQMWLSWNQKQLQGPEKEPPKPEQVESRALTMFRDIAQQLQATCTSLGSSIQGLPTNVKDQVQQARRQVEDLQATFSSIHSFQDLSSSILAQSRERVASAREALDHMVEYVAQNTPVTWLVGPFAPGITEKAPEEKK
UniProt Q9NRX1: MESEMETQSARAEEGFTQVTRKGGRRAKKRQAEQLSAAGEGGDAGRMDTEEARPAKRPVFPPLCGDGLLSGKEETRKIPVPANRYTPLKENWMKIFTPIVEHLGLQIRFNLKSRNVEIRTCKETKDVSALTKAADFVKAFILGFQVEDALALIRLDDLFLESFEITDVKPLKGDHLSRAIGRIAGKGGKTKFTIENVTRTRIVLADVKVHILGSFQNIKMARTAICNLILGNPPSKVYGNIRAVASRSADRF
UniProt P13797: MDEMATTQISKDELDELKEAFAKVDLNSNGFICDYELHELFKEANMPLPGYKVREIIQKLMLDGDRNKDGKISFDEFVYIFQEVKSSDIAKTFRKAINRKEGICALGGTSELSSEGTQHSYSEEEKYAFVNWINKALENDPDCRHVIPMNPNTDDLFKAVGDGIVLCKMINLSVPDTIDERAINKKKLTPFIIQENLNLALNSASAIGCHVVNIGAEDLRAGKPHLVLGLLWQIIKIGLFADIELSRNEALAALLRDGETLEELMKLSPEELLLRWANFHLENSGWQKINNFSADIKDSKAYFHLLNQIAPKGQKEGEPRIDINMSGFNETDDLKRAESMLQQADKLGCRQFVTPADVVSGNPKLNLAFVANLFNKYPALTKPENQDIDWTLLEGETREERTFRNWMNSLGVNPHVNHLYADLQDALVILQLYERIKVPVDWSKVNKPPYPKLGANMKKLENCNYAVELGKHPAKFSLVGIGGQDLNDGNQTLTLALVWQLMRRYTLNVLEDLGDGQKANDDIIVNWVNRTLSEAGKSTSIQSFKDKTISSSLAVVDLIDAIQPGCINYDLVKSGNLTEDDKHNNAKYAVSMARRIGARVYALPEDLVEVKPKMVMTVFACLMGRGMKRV
UniProt P35813: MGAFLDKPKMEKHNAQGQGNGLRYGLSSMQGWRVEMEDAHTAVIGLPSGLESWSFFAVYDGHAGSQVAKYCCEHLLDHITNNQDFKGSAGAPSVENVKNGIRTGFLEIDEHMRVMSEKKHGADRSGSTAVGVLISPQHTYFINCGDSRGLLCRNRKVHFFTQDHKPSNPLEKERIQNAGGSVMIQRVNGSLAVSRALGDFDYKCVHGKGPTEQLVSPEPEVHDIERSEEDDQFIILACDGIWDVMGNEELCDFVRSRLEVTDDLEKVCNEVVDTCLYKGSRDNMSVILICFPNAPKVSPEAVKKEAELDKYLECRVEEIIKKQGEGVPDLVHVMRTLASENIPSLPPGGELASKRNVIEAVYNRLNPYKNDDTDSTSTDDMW
UniProt Q8WZA1: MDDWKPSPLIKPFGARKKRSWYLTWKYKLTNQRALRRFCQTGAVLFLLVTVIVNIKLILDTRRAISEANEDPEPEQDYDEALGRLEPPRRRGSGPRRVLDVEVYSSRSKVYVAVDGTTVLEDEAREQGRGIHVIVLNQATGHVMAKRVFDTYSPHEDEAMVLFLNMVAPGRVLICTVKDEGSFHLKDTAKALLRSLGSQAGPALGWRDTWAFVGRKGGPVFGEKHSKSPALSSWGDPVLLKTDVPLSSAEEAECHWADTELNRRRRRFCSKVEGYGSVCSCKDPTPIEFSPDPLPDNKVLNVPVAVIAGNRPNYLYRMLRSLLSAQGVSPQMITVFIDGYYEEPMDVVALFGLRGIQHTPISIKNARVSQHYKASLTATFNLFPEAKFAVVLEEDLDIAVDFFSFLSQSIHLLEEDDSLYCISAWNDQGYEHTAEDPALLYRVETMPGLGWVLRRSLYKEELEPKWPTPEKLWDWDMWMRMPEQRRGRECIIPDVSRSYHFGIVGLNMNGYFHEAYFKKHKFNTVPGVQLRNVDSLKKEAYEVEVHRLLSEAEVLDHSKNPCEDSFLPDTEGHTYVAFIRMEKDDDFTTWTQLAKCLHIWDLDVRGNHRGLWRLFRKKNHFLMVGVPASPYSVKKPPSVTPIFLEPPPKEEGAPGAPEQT
UniProt O94903: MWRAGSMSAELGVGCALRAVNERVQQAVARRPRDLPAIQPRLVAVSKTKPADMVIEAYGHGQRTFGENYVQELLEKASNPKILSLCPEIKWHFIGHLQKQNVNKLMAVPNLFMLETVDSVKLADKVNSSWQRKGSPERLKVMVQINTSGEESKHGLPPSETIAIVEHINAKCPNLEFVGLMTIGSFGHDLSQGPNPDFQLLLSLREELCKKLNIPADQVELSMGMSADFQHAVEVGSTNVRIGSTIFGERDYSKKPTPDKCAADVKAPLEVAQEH
UniProt P30405: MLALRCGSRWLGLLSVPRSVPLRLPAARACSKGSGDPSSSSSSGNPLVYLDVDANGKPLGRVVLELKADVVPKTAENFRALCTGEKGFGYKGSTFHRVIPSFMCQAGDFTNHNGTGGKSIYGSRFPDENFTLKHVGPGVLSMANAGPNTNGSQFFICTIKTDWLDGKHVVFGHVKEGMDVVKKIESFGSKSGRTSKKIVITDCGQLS
UniProt O95707: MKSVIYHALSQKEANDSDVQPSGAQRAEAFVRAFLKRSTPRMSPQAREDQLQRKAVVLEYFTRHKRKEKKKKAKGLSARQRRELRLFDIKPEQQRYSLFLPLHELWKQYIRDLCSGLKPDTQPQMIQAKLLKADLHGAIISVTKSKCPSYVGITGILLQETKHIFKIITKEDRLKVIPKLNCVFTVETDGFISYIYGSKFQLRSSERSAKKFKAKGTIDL
UniProt Q02809: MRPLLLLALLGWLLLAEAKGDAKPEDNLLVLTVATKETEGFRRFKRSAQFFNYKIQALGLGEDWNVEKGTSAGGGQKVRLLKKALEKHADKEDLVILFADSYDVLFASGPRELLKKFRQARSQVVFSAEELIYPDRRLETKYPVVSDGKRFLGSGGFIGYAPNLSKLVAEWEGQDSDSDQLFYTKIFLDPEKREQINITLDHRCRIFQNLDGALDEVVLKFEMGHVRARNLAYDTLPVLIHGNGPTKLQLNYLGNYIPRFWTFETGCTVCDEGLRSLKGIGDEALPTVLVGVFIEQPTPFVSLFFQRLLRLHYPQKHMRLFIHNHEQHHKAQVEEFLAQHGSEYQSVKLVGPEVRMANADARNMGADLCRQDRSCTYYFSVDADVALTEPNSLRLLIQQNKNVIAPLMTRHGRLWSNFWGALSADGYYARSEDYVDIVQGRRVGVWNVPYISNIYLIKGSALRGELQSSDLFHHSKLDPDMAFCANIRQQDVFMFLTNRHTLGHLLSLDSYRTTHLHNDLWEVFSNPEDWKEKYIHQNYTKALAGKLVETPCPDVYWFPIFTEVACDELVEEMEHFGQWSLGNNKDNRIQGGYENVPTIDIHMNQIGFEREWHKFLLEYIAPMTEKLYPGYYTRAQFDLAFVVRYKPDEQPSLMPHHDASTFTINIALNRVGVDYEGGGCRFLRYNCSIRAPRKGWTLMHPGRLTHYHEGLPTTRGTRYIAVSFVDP
UniProt Q8TCS8: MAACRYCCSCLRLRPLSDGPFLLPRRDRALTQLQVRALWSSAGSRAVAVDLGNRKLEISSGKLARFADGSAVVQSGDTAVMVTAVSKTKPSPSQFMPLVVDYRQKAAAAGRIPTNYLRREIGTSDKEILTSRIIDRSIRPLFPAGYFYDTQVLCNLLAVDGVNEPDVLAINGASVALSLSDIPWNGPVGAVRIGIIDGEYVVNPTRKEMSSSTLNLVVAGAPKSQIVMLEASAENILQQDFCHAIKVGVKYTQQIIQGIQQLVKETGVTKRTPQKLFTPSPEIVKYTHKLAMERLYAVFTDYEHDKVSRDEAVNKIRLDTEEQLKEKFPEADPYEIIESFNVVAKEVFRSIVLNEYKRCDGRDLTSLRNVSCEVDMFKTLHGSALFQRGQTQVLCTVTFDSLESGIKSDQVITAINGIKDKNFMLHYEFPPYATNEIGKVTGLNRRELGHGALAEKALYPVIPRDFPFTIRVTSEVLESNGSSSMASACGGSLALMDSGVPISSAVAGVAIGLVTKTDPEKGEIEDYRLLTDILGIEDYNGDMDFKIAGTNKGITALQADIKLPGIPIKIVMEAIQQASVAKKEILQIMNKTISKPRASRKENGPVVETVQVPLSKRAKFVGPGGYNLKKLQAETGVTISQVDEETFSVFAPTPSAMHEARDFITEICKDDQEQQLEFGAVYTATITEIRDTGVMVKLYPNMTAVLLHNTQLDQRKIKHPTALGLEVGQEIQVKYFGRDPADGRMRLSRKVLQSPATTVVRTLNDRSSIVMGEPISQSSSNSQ
UniProt O60568: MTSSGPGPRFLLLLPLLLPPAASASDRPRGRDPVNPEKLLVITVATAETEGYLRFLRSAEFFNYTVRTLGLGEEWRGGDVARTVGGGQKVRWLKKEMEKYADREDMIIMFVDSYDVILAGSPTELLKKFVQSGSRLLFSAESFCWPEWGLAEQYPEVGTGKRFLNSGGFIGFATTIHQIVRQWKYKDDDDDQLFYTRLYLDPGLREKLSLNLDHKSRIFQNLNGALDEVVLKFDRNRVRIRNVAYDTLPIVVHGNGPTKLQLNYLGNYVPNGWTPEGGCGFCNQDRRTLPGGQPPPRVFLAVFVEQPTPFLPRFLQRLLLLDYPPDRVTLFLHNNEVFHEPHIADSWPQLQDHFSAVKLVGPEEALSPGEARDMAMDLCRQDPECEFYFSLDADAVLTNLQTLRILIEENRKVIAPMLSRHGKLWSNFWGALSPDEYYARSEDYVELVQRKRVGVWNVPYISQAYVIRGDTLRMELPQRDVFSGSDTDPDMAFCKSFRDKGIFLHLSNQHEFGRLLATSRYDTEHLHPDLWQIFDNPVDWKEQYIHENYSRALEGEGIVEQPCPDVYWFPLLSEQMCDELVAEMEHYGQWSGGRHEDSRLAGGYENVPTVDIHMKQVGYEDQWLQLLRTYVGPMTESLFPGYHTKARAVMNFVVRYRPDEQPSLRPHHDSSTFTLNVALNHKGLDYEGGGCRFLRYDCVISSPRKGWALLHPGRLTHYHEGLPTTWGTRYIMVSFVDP

How the values were obtained:
Assay in all cases: log2 fold change, soluble protein after heating vs DMSO (PISA); higher = thermal stabilisation; K562 cells, 10 uM, 30 min; active = over 0.2 and 3.5 SD of the protein, either way, in both replicates (recomputed)
[1] = compound: CC[C@@H]1C(=O)N(C)c2cnc(Nc3ccc(C(=O)NC4CCN(C)CC4)cc3OC)nc2N1C1CCCC1
Procedure, shortened: (§1)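 Values are thermal stability changes relative to control samples and are taken from duplicates. They are stated as log2 fold changes. Before quantification by TMTpro 16plex LC-MS/MS with equalised channel sums, K562 cells at 2×10^6 cells/mL were treated with 10 μM compound for 30 min, heated in aliquots for 3 min across 48°C-58°C, pooled, extracted in PBS with 0.5% NP-40 at 4°C, and centrifuged at 21,000xg for 90 min to give the soluble supernatant.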

volasertib = compound: CC[C@@H]1C(=O)N(C)c2cnc(Nc3ccc(C(=O)N[C@H]4CC[C@H](N5CCN(CC6CC6)CC5)CC4)cc3OC)nc2N1C(C)C [volasertib]
Procedure, shortened: as §1

[2] = compound: CC[C@H](C)N1C=C(C2=C(C=C(C=C21)C3=CN=C(C=C3)N4CCNCC4)C(=O)NCC5=C(C=C(NC5=O)C)C)C
Procedure, shortened: as §1

epoxomicin = compound: CC[C@H](C)[C@@H](C(=O)N[C@@H]([C@@H](C)O)C(=O)N[C@@H](CC(C)C)C(=O)[C@]1(CO1)C)NC(=O)[C@H]([C@@H](C)CC)N(C)C(=O)C [epoxomicin]
Procedure, shortened: as §1

[3] = compound: CCn1c(C(=O)N(C2CC2)C2CC2)cc2c3c(ncn3C)c(Nc3cc(C)n(C)n3)nc21
Procedure, shortened: as §1

[4] = compound: CCn1cc(-c2ccnc3[nH]c(-c4cccc(CN(C)C)c4)cc23)c(-c2ccc(NC(=O)N(C)C)cc2)n1
Procedure, shortened: as §1

[5] = compound: CN(C)CC(=O)Nc1ccc2[nH]c(=O)c3ccccc3c2c1
Procedure, shortened: as §1

rosiglitazone = compound: CN(CCOC1=CC=C(C=C1)C[C@H]2C(=O)NC(=O)S2)C3=CC=CC=N3 (racemic) [rosiglitazone]
Procedure, shortened: as §1

[6] = compound: CN1C2=C(C3=C1C(=O)N(N=C3)CC4=CC(=CC=C4)N)SC(=C2)S(=O)C
Procedure, shortened: as §1

[7] = compound: CN1CCC(CNc2ccc3ncc(-c4cccc(OC(F)(F)F)c4)n3n2)CC1
Procedure, shortened: as §1

Measured: log2 fold change

POFUT2 (UniProt Q9Y2G5)
inactive: [1] 0.064 | volasertib -0.022 | [2] -0.018 | epoxomicin 0.021 | [3] -0.013 | [4] 0.047 | [5] -0.021 | rosiglitazone 0.038 | [6] 0.127 | [7] 0.071

POTEF (UniProt A5A3E0)
inactive: [1] 0.04 | volasertib -0.011 | [2] -0.003 | epoxomicin -0.005 | [3] -0.023 | [4] 0.02 | [5] -0.036 | rosiglitazone 0.01 | [6] -0.062 | [7] 0.006

POLR1C (UniProt O15160)
inactive: [1] -0.027 | volasertib -0.387 | [2] 0.088 | epoxomicin -0.005 | [3] -0.074 | [4] 0.039 | [5] 0.053 | rosiglitazone 0.005 | [6] 0.158 | [7] -0.062

POLDIP2 (UniProt Q9Y2S7)
inactive: [1] -0.012 | volasertib -0.058 | [2] 0.049 | epoxomicin 0.018 | [3] -0.027 | [4] -0.033 | [5] 0.005 | rosiglitazone 0.028 | [6] -0.056 | [7] 0.015

POLR3F (UniProt Q9H1D9)
inactive: [1] 0.049 | volasertib 0.003 | [2] 0.029 | epoxomicin 0.066 | [3] 0.001 | [4] -0.024 | [5] 0.043 | rosiglitazone 0.029 | [6] -0.048 | [7] 0.026

PPIH (UniProt O43447)
inactive: [1] -0.019 | volasertib -0.018 | [2] 0.055 | epoxomicin 0.045 | [3] -0.01 | [4] -0.008 | [5] 0.016 | rosiglitazone 0.042 | [6] -0.046 | [7] -0.041

PLIN3 (UniProt O60664)
inactive: [1] -0.034 | volasertib 0.031 | [2] -0.008 | epoxomicin 0.046 | [3] -0.002 | [4] -0.013 | [5] -0.003 | rosiglitazone 0.018 | [6] -0.025 | [7] -0.062

PNO1 (UniProt Q9NRX1)
inactive: [1] 0.122 | volasertib 0.128 | [2] 0.059 | epoxomicin -0.027 | [3] -0.091 | [4] 0.001 | [5] 0.041 | rosiglitazone 0.026 | [6] 0.132 | [7] 0.273

PLS3 (UniProt P13797)
inactive: [1] 0.026 | volasertib -0.013 | [2] -0.049 | epoxomicin -0.031 | [3] -0.011 | [4] -0.019 | [5] -0.017 | rosiglitazone 0.018 | [6] -0.029 | [7] 0.037

PPM1A isoform 3 (UniProt P35813)
inactive: [1] -0.007 | volasertib 0.028 | [2] 0.021 | epoxomicin 0.048 | [3] -0.022 | [4] -0.045 | [5] 0.037 | rosiglitazone 0.052 | [6] -0.028 | [7] -0.035

PON2 (UniProt Q15165)
inactive: [1] 0.003 | volasertib -0.041 | [2] 0.016 | epoxomicin 0.055 | [3] 0.006 | [4] 0.055 | [5] -0.001 | rosiglitazone -0.004 | [6] -0.071 | [7] 0.055

POMGNT1 isoform 2 (UniProt Q8WZA1)
inactive: [1] 0.19 | volasertib 0.11 | [2] -0.147 | epoxomicin -0.24 | [3] -0.028 | [4] 0.065 | [5] -0.079 | rosiglitazone 0.127 | [6] 0.004 | [7] -0.077

PPIP5K1 (UniProt Q6PFW1)
inactive: [1] 0.01 | volasertib -0.035 | [2] 0.007 | epoxomicin 0.002 | [3] 0.022 | [4] -0.086 | [5] -0.038 | rosiglitazone 0.018 | [6] -0.049 | [7] 0.041

PLPBP (UniProt O94903)
inactive: [1] 0 | volasertib -0.108 | [2] 0.027 | epoxomicin 0.033 | [3] -0.11 | [4] -0.063 | [5] 0.049 | rosiglitazone 0.015 | [6] -0.001 | [7] -0.127

PLVAP (UniProt Q9BX97)
inactive: [1] 0.164 | volasertib -0.076 | [2] -0.059 | epoxomicin 0.064 | [3] -0.05 | [4] -0.218 | [5] -0.096 | rosiglitazone -0.1 | [6] 0.141 | [7] 0.122

PPIL3 isoform 2 (UniProt Q9H2H8)
inactive: [1] 0.063 | volasertib -0.146 | [2] 0.139 | epoxomicin -0.007 | [3] -0.042 | [4] 0.027 | [5] 0.024 | rosiglitazone 0.07 | [6] 0.031 | [7] -0.112

POGLUT2 (UniProt Q6UW63)
inactive: [1] -0.005 | volasertib 0.003 | [2] 0.035 | epoxomicin 0.009 | [3] -0.007 | [4] 0.045 | [5] -0.058 | rosiglitazone 0.005 | [6] 0.03 | [7] 0.034

POLG2 (UniProt Q9UHN1)
inactive: [1] 0.091 | volasertib -0.013 | [2] 0.014 | epoxomicin -0.025 | [3] 0.003 | [4] -0.025 | [5] -0.059 | rosiglitazone -0.037 | [6] -0.043 | [7] 0.127

POGLUT3 (UniProt Q7Z4H8)
inactive: [1] 0.015 | volasertib 0.022 | [2] 0.024 | epoxomicin 0.062 | [3] 0.049 | [4] 0.036 | [5] 0.009 | rosiglitazone 0.07 | [6] 0.023 | [7] 0.101

PPIF (UniProt P30405)
inactive: [1] 0.018 | volasertib 0.027 | [2] -0.032 | epoxomicin -0.069 | [3] 0.011 | [4] -0.017 | [5] -0.02 | rosiglitazone -0.004 | [6] -0.054 | [7] 0.02

PLXNA1 (UniProt Q9UIW2)
inactive: [1] 0.019 | volasertib 0.01 | [2] -0.023 | epoxomicin 0.024 | [3] -0.003 | [4] -0.029 | [5] -0.016 | rosiglitazone 0.037 | [6] -0.059 | [7] 0.03

POP4 (UniProt O95707)
inactive: [1] -0.082 | volasertib 0.168 | [2] 0.027 | epoxomicin -0.055 | [3] 0.017 | [4] -0.041 | [5] -0.031 | rosiglitazone 0.055 | [6] -0.024 | [7] 0.069

Random excerpt: 2 records from the list, in no set order.
PLVAP (UniProt Q9BX97)
inactive: [1] 0.164 | volasertib -0.076 | [2] -0.059 | epoxomicin 0.064 | [3] -0.05 | [4] -0.218 | [5] -0.096 | rosiglitazone -0.1 | [6] 0.141 | [7] 0.122

PPIP5K1 (UniProt Q6PFW1)
inactive: [1] 0.01 | volasertib -0.035 | [2] 0.007 | epoxomicin 0.002 | [3] 0.022 | [4] -0.086 | [5] -0.038 | rosiglitazone 0.018 | [6] -0.049 | [7] 0.041

Remaining list, next part

POP7 (UniProt O75817)
inactive: [1] -0.012 | volasertib 0.113 | [2] 0.247 | epoxomicin -0.062 | [3] -0.056 | [4] -0.006 | [5] 0.002 | rosiglitazone 0.051 | [6] 0.011 | [7] -0.055

PPIE (UniProt Q9UNP9)
inactive: [1] -0.028 | volasertib -0.042 | [2] -0.039 | epoxomicin 0.034 | [3] 0.007 | [4] 0.026 | [5] -0.046 | rosiglitazone -0.029 | [6] -0.013 | [7] -0.014

PLXNB2 (UniProt O15031)
inactive: [1] 0.002 | volasertib -0.094 | [2] 0.047 | epoxomicin -0.01 | [3] -0.047 | [4] -0.047 | [5] 0.008 | rosiglitazone 0.049 | [6] -0.052 | [7] 0.132

PLOD1 isoform 2 (UniProt Q02809)
inactive: [1] 0.055 | volasertib 0.049 | [2] 0 | epoxomicin -0.025 | [3] 0.005 | [4] 0.056 | [5] -0.021 | rosiglitazone -0.044 | [6] 0.107 | [7] 0.148

PLS1 (UniProt Q14651)
inactive: [1] -0.043 | volasertib -0.13 | [2] 0.043 | epoxomicin 0.004 | [3] -0.035 | [4] -0.046 | [5] 0.023 | rosiglitazone 0.007 | [6] -0.061 | [7] -0.09

PNPT1 (UniProt Q8TCS8)
inactive: [1] 0.006 | volasertib -0.088 | [2] 0.076 | epoxomicin 0.062 | [3] -0.083 | [4] -0.047 | [5] 0.072 | rosiglitazone 0.045 | [6] -0.024 | [7] 0.019

PLOD3 (UniProt O60568)
inactive: [1] 0.05 | volasertib 0.088 | [2] -0.007 | epoxomicin -0.022 | [3] 0.01 | [4] 0.027 | [5] -0.053 | rosiglitazone 0 | [6] 0.037 | [7] 0.138

PPFIA1 (UniProt Q13136)
inactive: [1] 0.066 | volasertib -0.279 | [2] -0.278 | epoxomicin -0.034 | [3] -0.079 | [4] -0.003 | [5] -0.03 | rosiglitazone 0.07 | [6] 0.069 | [7] 0.013
